Test results taken from the supplement of paper PMC6411743.
± gives the standard deviation of the averaged measurements. The entries are a selection whose mix differs from that of the whole data set. Small differences around the control level are noise.

By UniProt entry, the sequences of proteins in these tests, tags left out. Where a name states a change or a piece, a line headed by the entry shows the natural chain unless it says otherwise.
UniProt P10606, whole entry: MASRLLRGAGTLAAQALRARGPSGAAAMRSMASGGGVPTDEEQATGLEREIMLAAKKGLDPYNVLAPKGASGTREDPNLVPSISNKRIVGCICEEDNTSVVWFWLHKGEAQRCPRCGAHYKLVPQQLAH
UniProt P35520: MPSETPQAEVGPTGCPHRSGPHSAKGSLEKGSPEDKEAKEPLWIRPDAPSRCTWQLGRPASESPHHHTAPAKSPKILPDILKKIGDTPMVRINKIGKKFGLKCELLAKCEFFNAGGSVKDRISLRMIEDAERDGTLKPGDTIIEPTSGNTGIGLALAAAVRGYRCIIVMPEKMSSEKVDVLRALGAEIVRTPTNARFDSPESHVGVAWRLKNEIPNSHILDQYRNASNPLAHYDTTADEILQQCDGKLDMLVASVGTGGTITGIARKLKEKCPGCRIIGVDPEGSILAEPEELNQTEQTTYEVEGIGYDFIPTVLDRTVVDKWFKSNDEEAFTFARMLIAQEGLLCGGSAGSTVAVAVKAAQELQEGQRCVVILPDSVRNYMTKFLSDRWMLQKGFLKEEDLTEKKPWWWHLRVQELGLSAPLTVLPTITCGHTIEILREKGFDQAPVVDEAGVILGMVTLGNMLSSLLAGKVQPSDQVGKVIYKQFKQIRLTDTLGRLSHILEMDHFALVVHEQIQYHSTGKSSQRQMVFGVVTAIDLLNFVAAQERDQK
UniProt P11166: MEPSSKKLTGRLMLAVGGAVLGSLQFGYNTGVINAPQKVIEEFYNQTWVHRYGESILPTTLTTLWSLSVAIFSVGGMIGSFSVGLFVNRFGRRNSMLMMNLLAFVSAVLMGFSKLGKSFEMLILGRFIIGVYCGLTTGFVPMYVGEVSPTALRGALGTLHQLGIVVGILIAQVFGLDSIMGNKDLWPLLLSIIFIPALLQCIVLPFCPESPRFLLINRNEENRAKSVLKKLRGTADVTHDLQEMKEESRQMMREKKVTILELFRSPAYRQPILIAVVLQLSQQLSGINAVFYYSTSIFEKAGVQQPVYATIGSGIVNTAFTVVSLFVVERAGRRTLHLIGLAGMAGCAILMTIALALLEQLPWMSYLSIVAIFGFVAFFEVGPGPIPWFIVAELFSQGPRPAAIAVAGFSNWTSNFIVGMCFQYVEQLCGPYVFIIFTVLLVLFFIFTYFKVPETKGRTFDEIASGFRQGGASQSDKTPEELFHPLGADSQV
UniProt P07355, whole entry: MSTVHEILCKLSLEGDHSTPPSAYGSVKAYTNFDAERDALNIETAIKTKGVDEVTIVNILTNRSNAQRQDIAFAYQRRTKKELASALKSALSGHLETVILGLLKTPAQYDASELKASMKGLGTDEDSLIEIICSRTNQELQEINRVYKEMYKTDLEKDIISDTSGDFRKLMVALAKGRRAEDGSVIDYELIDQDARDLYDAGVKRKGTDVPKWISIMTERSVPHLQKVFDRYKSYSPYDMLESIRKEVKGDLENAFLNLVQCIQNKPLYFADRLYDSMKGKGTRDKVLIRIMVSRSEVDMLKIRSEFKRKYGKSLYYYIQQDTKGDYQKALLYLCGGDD
UniProt P09669, whole entry: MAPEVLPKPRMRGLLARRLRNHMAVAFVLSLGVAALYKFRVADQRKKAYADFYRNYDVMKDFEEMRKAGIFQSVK
UniProt P16455, whole entry: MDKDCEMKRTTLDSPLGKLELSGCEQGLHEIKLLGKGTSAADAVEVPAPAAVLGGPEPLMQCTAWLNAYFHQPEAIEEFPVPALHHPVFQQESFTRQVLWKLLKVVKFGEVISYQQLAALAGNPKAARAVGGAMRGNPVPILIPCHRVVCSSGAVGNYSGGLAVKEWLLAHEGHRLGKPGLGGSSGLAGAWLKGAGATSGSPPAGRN
UniProt P14151: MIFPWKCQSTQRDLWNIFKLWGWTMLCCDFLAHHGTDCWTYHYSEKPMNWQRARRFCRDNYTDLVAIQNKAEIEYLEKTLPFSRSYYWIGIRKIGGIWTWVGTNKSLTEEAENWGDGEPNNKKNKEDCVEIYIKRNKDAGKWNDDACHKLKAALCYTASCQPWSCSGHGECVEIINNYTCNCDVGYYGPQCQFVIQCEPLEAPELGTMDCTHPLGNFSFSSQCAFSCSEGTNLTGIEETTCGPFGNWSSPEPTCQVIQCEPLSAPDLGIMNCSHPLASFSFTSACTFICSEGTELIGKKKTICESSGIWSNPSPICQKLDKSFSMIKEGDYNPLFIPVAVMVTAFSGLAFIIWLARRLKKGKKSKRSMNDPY
UniProt P07686: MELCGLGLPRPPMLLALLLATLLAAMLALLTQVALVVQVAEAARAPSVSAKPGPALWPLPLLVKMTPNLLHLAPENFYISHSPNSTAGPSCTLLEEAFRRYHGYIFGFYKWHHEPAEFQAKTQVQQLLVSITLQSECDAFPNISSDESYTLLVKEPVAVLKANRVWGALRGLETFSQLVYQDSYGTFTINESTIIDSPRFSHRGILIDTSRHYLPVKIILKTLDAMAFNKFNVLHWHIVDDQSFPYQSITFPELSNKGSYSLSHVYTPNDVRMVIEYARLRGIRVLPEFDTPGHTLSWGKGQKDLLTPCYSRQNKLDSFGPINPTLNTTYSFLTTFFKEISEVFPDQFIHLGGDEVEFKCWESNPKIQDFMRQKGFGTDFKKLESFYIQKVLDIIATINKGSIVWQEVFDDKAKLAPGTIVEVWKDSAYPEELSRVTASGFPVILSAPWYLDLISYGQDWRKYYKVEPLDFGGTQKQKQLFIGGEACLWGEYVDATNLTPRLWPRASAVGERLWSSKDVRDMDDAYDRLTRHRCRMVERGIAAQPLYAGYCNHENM
UniProt O95865: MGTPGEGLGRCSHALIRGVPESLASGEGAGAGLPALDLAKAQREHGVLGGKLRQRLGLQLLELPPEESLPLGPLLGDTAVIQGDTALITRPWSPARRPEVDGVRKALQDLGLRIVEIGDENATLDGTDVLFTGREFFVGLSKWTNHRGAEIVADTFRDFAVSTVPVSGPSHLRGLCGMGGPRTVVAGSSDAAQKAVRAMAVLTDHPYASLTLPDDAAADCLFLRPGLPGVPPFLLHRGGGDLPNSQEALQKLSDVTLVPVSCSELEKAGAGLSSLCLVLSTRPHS
UniProt P10109: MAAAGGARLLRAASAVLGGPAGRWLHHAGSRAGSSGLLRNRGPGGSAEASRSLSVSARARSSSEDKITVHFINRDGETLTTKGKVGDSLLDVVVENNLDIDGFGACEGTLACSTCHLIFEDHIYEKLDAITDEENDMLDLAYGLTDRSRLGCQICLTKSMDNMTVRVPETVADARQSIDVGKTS
UniProt P11274: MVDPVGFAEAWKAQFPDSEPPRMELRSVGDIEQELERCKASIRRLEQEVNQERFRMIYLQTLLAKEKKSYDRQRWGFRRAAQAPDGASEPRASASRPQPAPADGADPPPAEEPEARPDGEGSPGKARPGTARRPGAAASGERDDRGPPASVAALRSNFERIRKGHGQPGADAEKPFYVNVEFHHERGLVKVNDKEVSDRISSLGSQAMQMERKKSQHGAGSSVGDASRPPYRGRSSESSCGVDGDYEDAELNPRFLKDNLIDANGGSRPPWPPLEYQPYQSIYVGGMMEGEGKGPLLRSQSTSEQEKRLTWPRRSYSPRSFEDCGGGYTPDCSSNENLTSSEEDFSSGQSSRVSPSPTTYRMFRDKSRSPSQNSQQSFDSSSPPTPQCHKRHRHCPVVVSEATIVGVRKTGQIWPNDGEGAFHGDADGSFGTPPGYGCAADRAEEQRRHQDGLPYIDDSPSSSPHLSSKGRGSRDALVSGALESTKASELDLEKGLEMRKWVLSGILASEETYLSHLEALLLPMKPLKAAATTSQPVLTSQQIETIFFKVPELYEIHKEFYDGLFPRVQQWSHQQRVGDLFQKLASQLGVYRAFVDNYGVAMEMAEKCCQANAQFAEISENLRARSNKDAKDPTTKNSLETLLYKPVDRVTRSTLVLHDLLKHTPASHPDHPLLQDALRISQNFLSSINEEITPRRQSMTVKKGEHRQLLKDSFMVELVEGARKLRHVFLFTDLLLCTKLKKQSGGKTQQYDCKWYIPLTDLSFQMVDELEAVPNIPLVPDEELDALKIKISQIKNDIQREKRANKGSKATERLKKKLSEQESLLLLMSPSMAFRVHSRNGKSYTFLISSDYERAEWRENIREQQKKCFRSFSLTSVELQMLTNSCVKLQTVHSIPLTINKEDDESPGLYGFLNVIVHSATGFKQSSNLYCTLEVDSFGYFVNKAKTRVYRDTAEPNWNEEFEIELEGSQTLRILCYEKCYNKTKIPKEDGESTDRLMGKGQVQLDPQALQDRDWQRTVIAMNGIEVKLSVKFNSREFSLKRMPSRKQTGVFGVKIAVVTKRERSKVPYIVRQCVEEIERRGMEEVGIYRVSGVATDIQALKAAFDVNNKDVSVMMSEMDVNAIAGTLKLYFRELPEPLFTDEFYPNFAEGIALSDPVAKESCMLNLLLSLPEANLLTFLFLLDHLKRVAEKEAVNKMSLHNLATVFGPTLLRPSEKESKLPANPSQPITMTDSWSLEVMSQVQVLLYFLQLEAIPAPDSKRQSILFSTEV
UniProt P13598: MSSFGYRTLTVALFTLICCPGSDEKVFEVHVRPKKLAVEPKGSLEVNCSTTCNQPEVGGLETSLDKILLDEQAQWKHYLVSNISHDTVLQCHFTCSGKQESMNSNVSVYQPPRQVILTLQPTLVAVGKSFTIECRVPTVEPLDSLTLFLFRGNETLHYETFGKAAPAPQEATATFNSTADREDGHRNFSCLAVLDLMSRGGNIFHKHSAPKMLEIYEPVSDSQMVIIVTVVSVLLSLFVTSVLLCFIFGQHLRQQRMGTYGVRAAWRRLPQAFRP
UniProt P16383: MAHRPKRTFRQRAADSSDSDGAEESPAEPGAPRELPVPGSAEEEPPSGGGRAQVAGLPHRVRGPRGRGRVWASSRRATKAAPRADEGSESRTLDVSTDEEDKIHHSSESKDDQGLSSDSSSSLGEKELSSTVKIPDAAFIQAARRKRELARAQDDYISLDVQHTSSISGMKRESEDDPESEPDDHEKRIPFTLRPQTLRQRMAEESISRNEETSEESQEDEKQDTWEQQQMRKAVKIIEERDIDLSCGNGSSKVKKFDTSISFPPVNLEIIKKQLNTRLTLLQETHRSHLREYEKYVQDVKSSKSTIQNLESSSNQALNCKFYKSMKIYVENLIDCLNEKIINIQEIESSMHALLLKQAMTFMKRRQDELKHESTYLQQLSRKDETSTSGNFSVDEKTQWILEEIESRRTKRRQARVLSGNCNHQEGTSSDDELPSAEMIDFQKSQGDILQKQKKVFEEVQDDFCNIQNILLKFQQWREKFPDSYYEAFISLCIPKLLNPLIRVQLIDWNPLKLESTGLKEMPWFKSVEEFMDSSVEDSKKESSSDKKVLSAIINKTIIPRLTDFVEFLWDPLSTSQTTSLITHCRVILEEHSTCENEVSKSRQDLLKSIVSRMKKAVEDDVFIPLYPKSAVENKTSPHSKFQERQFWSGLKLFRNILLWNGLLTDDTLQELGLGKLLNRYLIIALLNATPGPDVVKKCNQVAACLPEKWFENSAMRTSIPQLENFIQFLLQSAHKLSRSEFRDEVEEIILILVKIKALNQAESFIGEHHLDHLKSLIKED
UniProt P11441: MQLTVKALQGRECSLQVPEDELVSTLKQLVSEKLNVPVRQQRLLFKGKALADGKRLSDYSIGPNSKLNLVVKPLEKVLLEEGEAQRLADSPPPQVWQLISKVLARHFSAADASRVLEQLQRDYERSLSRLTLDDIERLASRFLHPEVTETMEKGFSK
UniProt P00390: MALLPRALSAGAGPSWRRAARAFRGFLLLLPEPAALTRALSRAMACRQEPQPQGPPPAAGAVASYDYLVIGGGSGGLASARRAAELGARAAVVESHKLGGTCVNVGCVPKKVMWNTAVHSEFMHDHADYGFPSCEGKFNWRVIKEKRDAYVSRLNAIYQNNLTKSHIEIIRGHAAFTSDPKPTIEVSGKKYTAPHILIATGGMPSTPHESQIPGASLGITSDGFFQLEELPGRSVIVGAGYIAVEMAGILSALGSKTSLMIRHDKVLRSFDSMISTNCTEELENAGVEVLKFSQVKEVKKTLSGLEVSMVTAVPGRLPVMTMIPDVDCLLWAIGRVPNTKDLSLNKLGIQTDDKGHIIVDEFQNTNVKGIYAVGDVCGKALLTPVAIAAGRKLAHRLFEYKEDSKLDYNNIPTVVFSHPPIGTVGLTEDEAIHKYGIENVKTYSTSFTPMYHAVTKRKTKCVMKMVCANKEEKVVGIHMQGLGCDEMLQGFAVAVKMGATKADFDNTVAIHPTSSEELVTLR
UniProt P13995: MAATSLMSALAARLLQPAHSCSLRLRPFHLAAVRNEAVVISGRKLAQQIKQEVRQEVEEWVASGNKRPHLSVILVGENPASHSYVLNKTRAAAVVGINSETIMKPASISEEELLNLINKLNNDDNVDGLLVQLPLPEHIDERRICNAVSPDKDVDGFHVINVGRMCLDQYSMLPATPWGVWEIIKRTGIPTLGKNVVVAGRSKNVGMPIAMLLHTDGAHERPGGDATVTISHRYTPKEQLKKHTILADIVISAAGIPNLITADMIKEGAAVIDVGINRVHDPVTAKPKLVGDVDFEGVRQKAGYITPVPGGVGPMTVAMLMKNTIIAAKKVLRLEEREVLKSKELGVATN

compound: Nc1ncnc2c1ncn2[C@@H]1O[C@H](COP(=O)(O)OP(=O)(O)NP(=O)(O)O)[C@@H](O)[C@H]1O [adenylyl imidodiphosphate]; assay: NP40-soluble protein abundance relative to vehicle (solubility fold change) (ratio); higher = more soluble protein in presence of AMP-PNP; settings: concentration: 0.5mM
In short: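 Each value is a fold change relative to the detergent-processed vehicle, calculated per replicate from vsn-normalised intensities. Jurkat crude lysate received eight concentrations (0.1 to 10 mM) for 10 min at room temperature and 3 min at 37 °C, then was solubilised in 0.8% NP40 with benzonase (60 min, 4 °C). The ultracentrifuged supernatant was TMT-labelled and run by LC-MS/MS in three independent experiments.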

Target	NP40-soluble protein abundance
SLC25A6 (UniProt P12236)	0.957 ± 0.057
HIST1H1C (UniProt P16403)	1.09 ± 0.12
COX5B (UniProt P10606)	0.977 ± 0.048
UniProt P06396-2	1.07 ± 0.081
UniProt O95985 and related entries	1.003 ± 0.0094
UniProt P06576 and related entries	1.02 ± 0.045
STMN1 (UniProt P16949)	0.996 ± 0.067
P0DN79 and related entries (UniProt P35520+P0DN79)	0.985 ± 0.042
UniProt P10586 and related entries	0.973 ± 0.029
UniProt P09497-2	0.9919 ± 0.009
SLC2A1 (UniProt P11166)	1.01 ± 0.058
DLD (UniProt P09622)	1.01 ± 0.025
NCK1 (UniProt P16333)	0.975 ± 0.027
ANXA2 (UniProt P07355)	0.978 ± 0.029
UniProt P15291 and related entries	0.991 ± 0.022
COX6C (UniProt P09669)	1.03 ± 0.14
UniProt P16435 and related entries	1 ± 0.03
EEF2 (UniProt P13639)	0.995 ± 0.021
MGMT (UniProt P16455)	1 ± 0.051

Three entries from above in another layout.
UniProt O95985 and related entries
  NP40-soluble protein abundance: 1.003 ± 0.0094
UniProt P06576 and related entries
  NP40-soluble protein abundance: 1.02 ± 0.045
STMN1 (UniProt P16949)
  NP40-soluble protein abundance: 0.996 ± 0.067

Continued.

Target	NP40-soluble protein abundance
UniProt P14151 and related entries	1.05 ± 0.07
HEXB (UniProt P07686)	0.994 ± 0.024
DDAH2 (UniProt O95865)	1.02 ± 0.025
UniProt P09960 and related entries	1 ± 0.065
FDX1 (UniProt P10109)	0.954 ± 0.047
UniProt P04150 and related entries	0.985 ± 0.022
UniProt P11274 and related entries	0.988 ± 0.026
UniProt P09651-2|P09651	1.07 ± 0.078
ICAM2 (UniProt P13598)	1.05 ± 0.046
UniProt P16383 and related entries	1.05 ± 0.065
UBL4A (UniProt P11441)	1.038 ± 0.0024
UCHL3 (UniProt P15374)	1.038 ± 0.0099
RB1 (UniProt P06400)	1 ± 0.022
UniProt P00390 and related entries	0.994 ± 0.044
MTHFD2 (UniProt P13995)	1.02 ± 0.025
UniProt P15170-2|P15170-3|H3BSV8	1.008 ± 0.0058
UniProt O96028 and related entries	1.03 ± 0.042
UniProt P13674-2|P13674	0.998 ± 0.013
DBT (UniProt P11182)	1.01 ± 0.075
